Data: PubChem BioAssay AID248 (DTP/NCI, 2004)
The list does not hold the whole screen: it gathers tests that were run many times, whatever their T/C, doses with no T/C, and many T/C values between a quarter and a half above the control. Further doses and runs are listed elsewhere. T/C gives the treated animals as a percentage of the vehicle group. Some entries give survivors of the animals treated and no T/C: the source holds a T/C of zero for them, seemingly a mark for toxic or unscored doses. Some survivor counts are full or nearly so, which does not show that the dose was tolerated: survival well below the control is almost never listed, so the zero probably covers shortened survival too. Survivors were counted at the toxicity check, usually on the fifth day, unless a day is given; later deaths do not show. Schedule codes are those of the source, read here as Q, the interval in days (D) or hours (H), X, the number of doses. Some doses were run more than once; their values stand side by side, smallest first. Some schedules carry Z or #; the key to these is not given. Additions like (4×) give the number of equal values in this list. For survival time, the PubChem record calls one and a half times the control and up active, and a quarter to a half above the control has no call in these data; cut-offs in other NCI protocols can differ. Some T/C values are followed by the survivors on the day toxicity was checked, most often the fifth; where none is given, no animal had died by that day.

System: L1210 leukemia ip in BDF1 mice, survival T/C
Experiment: NCI In Vivo Anticancer Drug Screen. Data for tumor model L1210 Leukemia (intraperitoneal) in B6D2F1 (BDF1) mice
Settings: T/C endpoint: mean survival time, higher T/C = longer survival
[1] = dose: 50.0 mg/kg/injection, schedule: Q01DX005 (ip), vehicle: saline
[2] = dose: 50.0 mg/kg/injection, schedule: Q01DX009 (ip), vehicle: saline

## Nc1nc(=S)c2ncn(C3OC(CO)C(O)C3O)c2[nH]1 (configuration not stated)
dose: 0.25 mg/kg/injection, schedule: Q01DX Z (ip), vehicle: carboxymethylcellulose (CMC)
  T/C: 131 % of control
dose: 0.29 mg/kg/injection, schedule: Q01DX Z (ip), vehicle: saline
  T/C: 130 % of control
dose: 0.4 mg/kg/injection, schedule: Q01DX009 (ip), vehicle: carboxymethylcellulose (CMC)
  T/C: 134 % of control
dose: 0.44 mg/kg/injection, schedule: Q01DX Z (ip), vehicle: saline
  T/C: 140 % of control
dose: 0.5 mg/kg/injection, schedule: Q01DX015 (ip), vehicle: carboxymethylcellulose (CMC), evaluated on day 46
  T/C: 128 % of control
dose: 0.5 mg/kg/injection, schedule: Q01DX015 (ip), vehicle: carboxymethylcellulose (CMC), evaluated on day 60
  T/C: 137 % of control
dose: 0.66 mg/kg/injection, schedule: Q01DX Z (ip), vehicle: saline
  T/C: 143 % of control
dose: 0.75 mg/kg/injection, schedule: Q01DX005 (ip), vehicle: carboxymethylcellulose (CMC)
  T/C: 148 % of control
dose: 0.75 mg/kg/injection, schedule: Q01DX015 (ip), vehicle: carboxymethylcellulose (CMC)
  T/C: 139 % of control
dose: 0.75 mg/kg/injection, schedule: Q01DX Z (ip), vehicle: carboxymethylcellulose (CMC)
  T/C: 125 and 137 % of control
dose: 0.78 mg/kg/injection, schedule: Q01DX Z (ip), vehicle: carboxymethylcellulose (CMC)
  T/C: 146 % of control
dose: 1.0 mg/kg/injection, schedule: Q01DX015 (ip), vehicle: carboxymethylcellulose (CMC), evaluated on day 46
  T/C: 140, 152, 165 % of control
dose: 1.0 mg/kg/injection, schedule: Q01DX015 (ip), vehicle: carboxymethylcellulose (CMC), evaluated on day 60
  T/C: 163 % of control
dose: 1.0 mg/kg/injection, schedule: Q01DX015 (ip), vehicle: carboxymethylcellulose (CMC), run until all animals had died
  T/C: 198 % of control
dose: 1.0 mg/kg/injection, schedule: Q01DX Z (ip), vehicle: carboxymethylcellulose (CMC)
  T/C: 139 % of control
dose: 1.3 mg/kg/injection, schedule: Q01DX Z (ip), vehicle: carboxymethylcellulose (CMC)
  T/C: 135 % of control
dose: 1.6 mg/kg/injection, schedule: Q01DX009 (oral), vehicle: carboxymethylcellulose (CMC)
  T/C: 134 % of control
dose: 1.6 mg/kg/injection, schedule: Q01DX009 (sc), vehicle: carboxymethylcellulose (CMC)
  T/C: 143 % of control
dose: 1.8 mg/kg/injection, schedule: Q02DX008 (ip), vehicle: carboxymethylcellulose (CMC)
  T/C: 145 % of control
dose: 2.0 mg/kg/injection, schedule: Q01DX015 (ip), vehicle: other
  T/C: 141 % of control
dose: 2.0 mg/kg/injection, schedule: Q01DX Z (ip), vehicle: carboxymethylcellulose (CMC)
  T/C: 125 % of control
dose: 2.0 mg/kg/injection, schedule: Q01DX Z (ip), vehicle: saline
  T/C: 132 % of control
dose: 2.0 mg/kg/injection, schedule: Q## X024 (ip), vehicle: carboxymethylcellulose (CMC)
  T/C: 146 % of control
dose: 2.75 mg/kg/injection, schedule: Q## X003 (ip), vehicle: carboxymethylcellulose (CMC)
  T/C: 148 % of control
dose: 2.8 mg/kg/injection, schedule: Q## X032 (ip), vehicle: carboxymethylcellulose (CMC)
  T/C: 134 % of control
dose: 3.6 mg/kg/injection, schedule: Q01DX Z (ip), vehicle: carboxymethylcellulose (CMC)
  T/C: 141 % of control
dose: 3.6 mg/kg/injection, schedule: Q01DX Z (oral), vehicle: carboxymethylcellulose (CMC)
  T/C: 128 % of control
dose: 4.0 mg/kg/injection, schedule: Q01DX015 (ip), vehicle: carboxymethylcellulose (CMC)
  T/C: 149 % of control
dose: 4.0 mg/kg/injection, schedule: Q01DX015 (ip), vehicle: other
  T/C: 135 % of control
dose: 4.0 mg/kg/injection, schedule: Q01DX Z (ip), vehicle: carboxymethylcellulose (CMC)
  T/C: 138 % of control
dose: 4.0 mg/kg/injection, schedule: Q01DX Z (ip), vehicle: saline
  T/C: 127 % of control
dose: 4.0 mg/kg/injection, schedule: Q## X032 (ip), vehicle: carboxymethylcellulose (CMC)
  T/C: 130 % of control
dose: 4.7 mg/kg/injection, schedule: Q01DX Z (ip), vehicle: saline
  T/C: 137 % of control
dose: 6.0 mg/kg/injection, schedule: Q01DX Z (ip), vehicle: carboxymethylcellulose (CMC)
  T/C: 130 % of control
dose: 6.4 mg/kg/injection, schedule: Q01DX009 (oral), vehicle: carboxymethylcellulose (CMC)
  T/C: 148 % of control
dose: 9.4 mg/kg/injection, schedule: Q01DX Z (ip), vehicle: saline
  T/C: 143 % of control
dose: 9.6 mg/kg/injection, schedule: Q## X032 (ip), vehicle: carboxymethylcellulose (CMC)
  T/C: 148 % of control [8 of 10 alive]
dose: 10.0 mg/kg/injection, schedule: Q01DX Z (oral), vehicle: carboxymethylcellulose (CMC)
  T/C: 128 % of control
dose: 10.0 mg/kg/injection, schedule: Q## X032 (ip), vehicle: carboxymethylcellulose (CMC)
  T/C: 146 % of control [9 of 10 alive]
dose: 12.5 mg/kg/injection, schedule: Q01DX005 (ip), vehicle: saline
  T/C: 127 and 140 % of control
dose: 13.3 mg/kg/injection, schedule: Q02DX008 (ip), vehicle: carboxymethylcellulose (CMC)
  T/C: 143 % of control
dose: 20.0 mg/kg/injection, schedule: Q02DX008 (ip), vehicle: carboxymethylcellulose (CMC)
  T/C: 149 % of control
dose: 22.0 mg/kg/injection, schedule: Q## X032 (ip), vehicle: carboxymethylcellulose (CMC)
  T/C: 134 % of control
dose: 25.0 mg/kg/injection, schedule: Q01DX009 (ip), vehicle: saline
  survivor count: 6 of 6
dose: 35.0 mg/kg/injection, schedule: Q01DX009 (ip), vehicle: saline
  T/C: 143 % of control
dose: 36.0 mg/kg/injection, schedule: Q## X008 (ip), vehicle: carboxymethylcellulose (CMC)
  T/C: 148 % of control
dose: 37.5 mg/kg/injection, schedule: Q01DX009 (ip), vehicle: saline
  survivor count: 6 of 6
dose: 45.0 mg/kg/injection, schedule: Q01DX001 (oral), vehicle: carboxymethylcellulose (CMC)
  T/C: 148 % of control
dose: 45.0 mg/kg/injection, schedule: Q01DX001 (sc), vehicle: carboxymethylcellulose (CMC)
  T/C: 147 % of control
[1]
  T/C: 130 % of control
  survivor count: 6 of 6
[2]
  T/C: 126 and 136 % of control
  survivor count: 6 of 6
dose: 64.0 mg/kg/injection, schedule: Q## X032 (ip), vehicle: carboxymethylcellulose (CMC)
  survivor count: 5 of 9
dose: 67.0 mg/kg/injection, schedule: Q02DX008 (ip), vehicle: carboxymethylcellulose (CMC)
  T/C: 146 % of control
dose: 72.0 mg/kg/injection, schedule: Q## X008 (ip), vehicle: carboxymethylcellulose (CMC)
  T/C: 137 % of control
dose: 72.0 mg/kg/injection, schedule: Q## X016 (ip), vehicle: carboxymethylcellulose (CMC)
  survivor count: 10 of 10
dose: 75.0 mg/kg/injection, schedule: Q01DX009 (ip), vehicle: saline
  survivor count: 6 of 6
dose: 75.0 mg/kg/injection, schedule: Q01DX010 (ip), vehicle: saline
  survivor count: 6 of 6
dose: 80.0 mg/kg/injection, schedule: Q01DX Z (oral), vehicle: carboxymethylcellulose (CMC)
  survivor count: 3 of 6
dose: 90.0 mg/kg/injection, schedule: Q## X003 (oral), vehicle: carboxymethylcellulose (CMC)
  T/C: 148 % of control
dose: 95.0 mg/kg/injection, schedule: Q01DX001 (ip), vehicle: carboxymethylcellulose (CMC)
  T/C: 149 % of control
dose: 96.0 mg/kg/injection, schedule: Q## X032 (ip), vehicle: carboxymethylcellulose (CMC)
  survivor count: 5 of 10
dose: 100.0 mg/kg/injection, schedule: Q01DX005 (ip), vehicle: saline
  survivor count: 2 of 6 and 6 of 6
dose: 100.0 mg/kg/injection, schedule: Q01DX009 (ip), vehicle: saline
  T/C: 141 % of control [5 of 6 alive]
dose: 144.0 mg/kg/injection, schedule: Q01DX001 (ip), vehicle: carboxymethylcellulose (CMC)
  T/C: 147 % of control
dose: 144.0 mg/kg/injection, schedule: Q## X008 (ip), vehicle: carboxymethylcellulose (CMC)
  survivor count: 10 of 10
dose: 144.0 mg/kg/injection, schedule: Q## X016 (ip), vehicle: carboxymethylcellulose (CMC)
  survivor count: 10 of 10
dose: 144.0 mg/kg/injection, schedule: Q## X032 (ip), vehicle: carboxymethylcellulose (CMC)
  survivor count: 5 of 10
dose: 150.0 mg/kg/injection, schedule: Q01DX009 (ip), vehicle: saline
  survivor count: 3 of 6 and 5 of 6
dose: 150.0 mg/kg/injection, schedule: Q01DX010 (ip), vehicle: saline
  survivor count: 5 of 6 and 6 of 6
dose: 180.0 mg/kg/injection, schedule: Q01DX001 (oral), vehicle: carboxymethylcellulose (CMC)
  T/C: 139 and 144 % of control
dose: 180.0 mg/kg/injection, schedule: Q01DX001 (sc), vehicle: carboxymethylcellulose (CMC)
  T/C: 132 % of control
dose: 180.0 mg/kg/injection, schedule: Q## X003 (oral), vehicle: carboxymethylcellulose (CMC)
  T/C: 128 % of control
dose: 200.0 mg/kg/injection, schedule: Q01DX005 (ip), vehicle: saline
  survivor count: 3 of 6 (2×) and 5 of 6
dose: 215.0 mg/kg/injection, schedule: Q01DX001 (ip), vehicle: carboxymethylcellulose (CMC)
  T/C: 129 and 137 % of control
dose: 216.0 mg/kg/injection, schedule: Q## X032 (ip), vehicle: carboxymethylcellulose (CMC)
  survivor count: 3 of 10
dose: 288.0 mg/kg/injection, schedule: Q## X008 (ip), vehicle: carboxymethylcellulose (CMC)
  survivor count: 7 of 10
dose: 288.0 mg/kg/injection, schedule: Q## X016 (ip), vehicle: carboxymethylcellulose (CMC)
  survivor count: 9 of 10
dose: 300.0 mg/kg/injection, schedule: Q01DX010 (ip), vehicle: saline
  survivor count: 0 of 6
dose: 322.0 mg/kg/injection, schedule: Q01DX001 (ip), vehicle: carboxymethylcellulose (CMC)
  survivor count: 8 of 10
dose: 324.0 mg/kg/injection, schedule: Q## X032 (ip), vehicle: carboxymethylcellulose (CMC)
  survivor count: 1 of 10
dose: 360.0 mg/kg/injection, schedule: Q01DX001 (ip), vehicle: carboxymethylcellulose (CMC)
  survivor count: 10 of 10
dose: 360.0 mg/kg/injection, schedule: Q01DX001 (oral), vehicle: carboxymethylcellulose (CMC)
  T/C: 143 and 144 % of control
dose: 484.0 mg/kg/injection, schedule: Q01DX001 (ip), vehicle: carboxymethylcellulose (CMC)
  survivor count: 6 of 10
dose: 600.0 mg/kg/injection, schedule: Q01DX001 (ip), vehicle: carboxymethylcellulose (CMC)
  survivor count: 3 of 10
dose: 190.0 micrograms/kg/injection, schedule: Q01DX Z (ip), vehicle: saline
  T/C: 136 % of control
